We go through three sequences from paper PMC3991700.

For data set [1], the target named is Pi-FilR1 (FilR1 phosphorylated by FilI) (Methanosaeta harundinacea 6Ac) (UniProt G7WMP6). As to the kind of experiment: EMSA. The settings on record: FilI + ATP phosphorylation, enhanced affinity vs unphosphorylated FilR1; EMSA: 10 mM Tris-HCl pH 8.0, 50 mM KCl, 10 mM MgCl2, 1 mM DTT, 2.5% glycerol, 1% NP-40, 0.5 mM EDTA, 1 ug/uL poly dI-dC, 10 fmol (0.5 nM) biotin probe, 20 uL, 25 C; recombinant protein; residues 1-445; protein details: His6 (pET28a); label: 5' biotin on forward primer; probe letters rebuilt from the primers and the genome.

Data set [2] has as its target T1, FilR1 (Methanosaeta harundinacea 6Ac) (UniProt G7WMP6).
T1 sequence (looked up): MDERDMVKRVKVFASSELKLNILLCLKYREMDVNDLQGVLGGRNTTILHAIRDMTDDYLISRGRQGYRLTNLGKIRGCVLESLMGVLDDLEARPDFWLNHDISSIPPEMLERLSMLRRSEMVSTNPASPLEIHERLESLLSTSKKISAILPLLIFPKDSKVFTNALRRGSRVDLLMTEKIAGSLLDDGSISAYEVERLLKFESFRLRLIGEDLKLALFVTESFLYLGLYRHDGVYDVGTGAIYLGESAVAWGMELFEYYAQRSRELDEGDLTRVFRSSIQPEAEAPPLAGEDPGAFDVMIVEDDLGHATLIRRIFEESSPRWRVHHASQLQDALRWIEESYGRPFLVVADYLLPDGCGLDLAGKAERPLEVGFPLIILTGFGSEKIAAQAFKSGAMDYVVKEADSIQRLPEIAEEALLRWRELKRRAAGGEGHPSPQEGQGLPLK
Nature of the data set: EMSA. The settings on record: 10 mM Mg2+, poly dI-dC, EMSA: 10 mM Tris-HCl pH 8.0, 50 mM KCl, 10 mM MgCl2, 1 mM DTT, 2.5% glycerol, 1% NP-40, 0.5 mM EDTA, 1 ug/uL poly dI-dC, 10 fmol (0.5 nM) biotin probe, 20 uL, 25 C, recombinant protein, residues 1-445, protein details: His6 (pET28a), label: 5' biotin on forward primer, probe letters rebuilt from the primers and the genome. Background: Mobility shift assays separate free from complexed probe on a gel.

For some of these results: Negatives hold for the conditions tested. For some of these results: Protein sequences can lack the tags named with them. Construct, isoform or probe ends are uncertain for at least one entry. For some of these results: A weaker result is weaker than the reference pair of the same experiment.

Take “AACGGGTTCCATCTCGATATGATCAAGGGGTGGGGGGTTTATTAATAGGTTGAGGTCCCCCTCTCGAGGCCCGGAAAGGGCAAGAGATCCCCCGATAGATTTTTATCGACCGCATATTATCGAATTTTCCCCCGGCAGAGAGGCGGAGGCTTTATACCATTTTGGCATATCGAGGGTGAGTGGGTGAATCGGCATGGCGGAG (double strand) [Pacs1]”: in data set [1], the binding result is listed as “binds”.

“AAGCCCTGCCTGCCAAAGCCATCCCCCAAACGTCTGTGGACTAGCAAAGAATGCCAATGCAGTATATTAAAGTGACCGTCCCCAGGGTACGACCGCACAATATTTAGCCCTGGGGAGGGGAGGGGATAGAGTTTGAATCTGATGGTGA (double strand) [PfwdCABD]”: the binding result is “binds” in data set [1] and “binds more weakly” in data set [2] (low affinity). Regarding “ATTCCACCTCCTCATATCCCCTCAGATTTTCCGCAAAACAAGACGATAACCTCGTCTGTGGCATTCCTTTATAGCACTTTCCAGAAGAATAGCCGGGTCAGAAGCGGGAGGTTTAGTGCATAATCGCTGGTATTTGTGGATCGCTTGGATGAGACGATGATGGTAAAGGTCTGCCAAAATAGCAAAAGTCATTGAATATAATTTGTAAAAGAGCGCCGAGGGGGAGATTCGAACTCCCGCGACCCTTGCGAATCACAAGCTTTCAGTAGAGAATTCCAGGCTTGCGCCTTACCACTAGACTACCTCGGCAC (double strand) [PMhar_0449]”, the binding result in data set [2] is recorded as “no binding”.
